## Percent effect of library compounds

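Whole-parasite assay of Trypanosoma brucei over 72 hours; the read-out is not stated. Compounds at 30 µM. Higher reads as stronger inhibition (inferred: compounds with an IC50 in retests scored well above the rest). Values scatter widely below zero; nearly all retest evidence comes from the higher of the two concentrations used. Size under these conditions: about 64,000 compounds, about 940 of them at 50% or above in at least one test.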

Values are the deposited “Percent Effect”, in %. The record does not define 0% and 100%; most values in the screen are far below 50% and negative numbers occur (in some assays of this library far below -100). Compounds were drawn at random from those tested, without regard to their results.

| compound | Percent Effect |
|---|---|
| `O=C(c1cnc2n1CCCC2)N1CCCC1` | -13.33 |
| `[H][C@@]12COC[C@H](C(=O)N3CCCCO3)[C@]1([H])CN(C1CCOCC1)C2` | -11.27 |
| `CCc1nc(-c2ccc(NC(=O)N3CCC4(CC3)OCCO4)cc2)no1` | -11.08 |
| `CCc1onc(C)c1C(=O)N1CCN(c2ncc3c(n2)CCOC3)CC1.Cl` | 8.216 |
| `CSc1ccc(CNC2(c3ccc(F)cc3)CCOCC2)cc1` | 3.35 |
| `[H][C@@]12CCN(Cc3ccc(C)o3)C[C@@]1([H])[C@H](C(=O)NCC1CC1)CCO2` | -5.244 |
| `Cn1c2ncccc2c(=O)n1CC(=O)NCCC1=CCCCC1` | -29.76 |
| `CCC(=O)N1CCc2onc(CNS(C)(=O)=O)c2C1` | 9.568 |
| `Cn1cnc2c1CCN(Cc1csc(Cc3ccccc3)n1)C2` | 11.55 |
| `COc1cccc(OCC2CCCN(C(=O)CCn3ccnc3)C2)c1` (stereo not given) | -65.25 |
| `COCC(=O)NCc1cc(=O)n2c(n1)CN(Cc1nccs1)CCC2` | -63.79 |
| `CCN1CC(C(=O)NCc2nc(C3CCCCC3)no2)CC1=O` (stereo not given) | -7.26 |
| `O=C(O)CCN(Cc1ccc(F)c(F)c1)C(=O)C1CC1` | -17.39 |
| `CCc1cnc(CNc2cccc3c2CCN(S(=O)(=O)CC)C3)o1` | -43.83 |
| `CC(C)n1ccnc1CN1CCOC(CC2CCCCC2)C1` (stereo not given) | -88.31 |
| `CCCc1nc(C)cc(N2CCC3(CCC(=O)N(CCCO)C3)CC2)n1` | -51.53 |
| `O=C(C1CC1)N1CCC2(CC1)COCCN2Cc1ccc(F)cc1.O=C(O)C(F)(F)F` | 19.64 |
| `Cl.Cl.O=C(NCc1cncc2c1CCN(Cc1ccoc1)C2)C1CC1` | -3.448 |
| `Cc1cc(C(=O)NCC(C)N2CCc3ccccc32)no1` (stereo not given) | 6.084 |
| `O=C(O)C(F)(F)F.[H][C@@]12CCN(CCc3ccccc3)C[C@@]1([H])[C@H](C(=O)NC1CCC1)CCO2` | -10.06 |
| `O=C(c1cccnc1O)N1CCCC2(C=Cc3ccccc3O2)CC1` (stereo not given) | -20.17 |
| `O=C(c1cccc2c1OCO2)N1CCC(N2CCCC2)CC1` | -7.382 |
| `COCC1CN(Cc2ccc(OC)cc2)Cc2nn(C)cc21.O=C(O)C(F)(F)F` (stereo not given) | -43.94 |
| `Cc1ccc(C(=O)N2CCc3c(CNc4ncccn4)cncc3C2)o1.Cl` | -8.515 |
| `CCOCCn1c(=O)n(Cc2ccccc2F)c2cc(C(=O)O)cnc21` | -17.13 |
| `O=C(CCc1nc2ccccc2[nH]1)N1CCCC(n2cccn2)C1` (stereo not given) | 9.549 |
| `Cc1nc(C)n(CC2CN(CCc3ccccn3)CCO2)n1` (stereo not given) | -23.83 |
| `CC(C)C(=O)NCCNc1nccc(-c2cc(C(=O)O)ccn2)n1` | -62.84 |
| `CSc1ccc(C(C(=O)O)N2CCCC2)cc1` (stereo not given) | -18.98 |
| `Cc1ccc(S(N)(=O)=O)cc1C(=O)N1CCc2c(ncnc2N(C)C)C1` | -3.872 |
| `CCCN1CCCN(S(=O)(=O)c2cnc3onc(C)c3c2)CC1` | 10.08 |
| `O=C(Cc1ccccc1Cl)NCC1CCN(Cc2ccsc2)CC1` | -0.44 |
| `COc1ccccc1N(C)S(=O)(=O)c1cc(C(=O)O)cs1` | -2.894 |
| `CCN(C)C(=O)CN1CCC(c2cc(N3CCOCC3)nc(C)n2)CC1` | 8.745 |
| `CCc1ccc2c(c1)C(CCNC(=O)c1sccc1C)C(=O)N2` (stereo not given) | 17.38 |
| `C=C(C)COc1ccccc1NC(=O)N1CCCCC1CO` (stereo not given) | -17.7 |
| `Cc1cnn(CC2CCCCN2C(=O)CN(C)C2CC2)c1` (stereo not given) | 0.3617 |
| `[H][C@@]12CCCO[C@]1([H])[C@H](N(C)Cc1ccco1)CN(C(=O)c1ccoc1C)C2` | -1.289 |
| `CCc1ccc(C(=O)O)cc1S(=O)(=O)N(C)c1cccc(C#N)c1` | -22.16 |
| `CN(C)c1cc(C2CCCN(Cc3cnn(C)c3)C2)ccn1` (stereo not given) | -9.143 |
| `NCC(=O)N1CCC(c2cncc(Oc3cccnc3)n2)CC1` | 23.77 |
| `CCc1ncnc(N2CCCC(c3cc(C(N)=O)[nH]n3)C2)c1F` (stereo not given) | 12.2 |
| `Cc1ccsc1CN(C)Cn1nccc1-c1cccnc1` | -2.444 |
| `Cc1ncc2c(n1)CCN(Cc1nc3ccccc3o1)C2` | 7.662 |
| `CCc1cc(N[C@H]2CCC[C@H]2CO)n2nccc2n1` | -33.78 |
| `Cc1cc(Nc2nc(C)cs2)nc(C2CCCCN2CCO)n1` (stereo not given) | -18.92 |
| `O=C(c1cccnc1SC/C=C/c1ccccc1)N1CC[C@H](O)C1` | 2.509 |
| `CN(C)CCn1c2c(ccc1=O)CC(NC(=O)c1ccsc1)CC2.O=C(O)C(F)(F)F` (stereo not given) | -31.16 |
| `CCn1c(CN(C)C(=O)c2ccc(O)nc2)nc2ccccc21` | -5.025 |
| `CCc1nc(CN(C)C2CCN(CCc3ccccn3)C2)no1` (stereo not given) | 3.156 |
| `CCS(=O)(=O)N1CCOC2(CCCN(Cc3ccccn3)C2)C1.O=C(O)C(F)(F)F` (stereo not given) | -54.89 |
| `[H][C@@]12CNC[C@]1([H])CN(C(=O)c1ccc(S(=O)(=O)NCC(F)F)cc1)C2` | 1.424 |
| `CC(=O)c1ccc(N2CCCC(CO)(Cc3ccccc3F)C2)nc1` (stereo not given) | -24.14 |
| `CC(=O)N1CCC(NC(=O)c2cc(S(N)(=O)=O)ccc2C)CC1` | -49.33 |
| `COCC(=O)N1CCC2(CCN(c3cnn(C)c3)C2=O)C1` (stereo not given) | -43.34 |
| `O=C(O)C(F)(F)F.O=C(O)C(F)(F)F.[H][C@@]12CN(Cc3ccc(F)cc3)C[C@]1([H])OCCN2CC1CCCO1` (stereo not given in full) | 38.01 |
| `COc1ccc(C2CC(=O)Nc3c2nc2n3CCCC2)cc1OC` (stereo not given) | -44.88 |
| `Cc1nccc(-c2ccccc2)c1C(=O)N1CCC2(CC(=O)NC2=O)C1` (stereo not given) | -55.88 |
| `Cn1cc(C(=O)NC2CCN(Cc3ccn(C)c(=O)c3)CC2)cn1` | -19.58 |
| `COc1cccc(CNC(C)c2ccc(-n3ccnc3)cc2)c1O` (stereo not given) | 11.24 |
| `O=C(O)C(F)(F)F.O=C(O)C(F)(F)F.O=C(O)C(F)(F)F.c1c[nH]c(CN2CCC3(CC2)COCCN(CCN2CCCC2)C3)c1` | -46.53 |
| `Cc1cc(C2CCCN(S(=O)(=O)c3cn[nH]c3)C2)ccn1` (stereo not given) | -6.266 |
| `[H][C@@]12CCN(C(=O)c3cscn3)C[C@@]1([H])O[C@H](c1ccncn1)C2` | 22.99 |
| `NC(=O)CN1CCCN(C(=O)c2ccn(-c3ccc(F)cc3)n2)CC1` | -23.77 |
| `CCOC(=O)C1CN(CC2CC2)Cc2ncn(CC)c21.O=C(O)C(F)(F)F` (stereo not given) | -19.62 |

Repeated from the top, 6 entries:

{"compound": "O=C(c1cnc2n1CCCC2)N1CCCC1", "Percent Effect": -13.33}
{"compound": "[H][C@@]12COC[C@H](C(=O)N3CCCCO3)[C@]1([H])CN(C1CCOCC1)C2", "Percent Effect": -11.27}
{"compound": "CCc1nc(-c2ccc(NC(=O)N3CCC4(CC3)OCCO4)cc2)no1", "Percent Effect": -11.08}
{"compound": "CCc1onc(C)c1C(=O)N1CCN(c2ncc3c(n2)CCOC3)CC1.Cl", "Percent Effect": 8.216}
{"compound": "CSc1ccc(CNC2(c3ccc(F)cc3)CCOCC2)cc1", "Percent Effect": 3.35}
{"compound": "[H][C@@]12CCN(Cc3ccc(C)o3)C[C@@]1([H])[C@H](C(=O)NCC1CC1)CCO2", "Percent Effect": -5.244}

The values are deposited in ChEMBL (CHEMBL3988442, “University of Dundee, Small-Polar-MMV Screening Library” (2021)).